Test results reported in patent US20220372160A1.
These are yes or no findings as the source states them, for the method shown. Some binding calls cover weakened binding; strength is not graded here.

Legend:
[1] = target: recombinant cynomolgus monkey CD39 (cynomolgus monkey); assay: BLI, AHC biosensor
[2] = target: recombinant cynomolgus monkey CD39 (cynomolgus monkey); assay: BLI

binding [1]: binds
binding [2]: binds
B1: anti-CD39 antibody clone 22 (antibody, human IgG4 S228P, kappa, V domains shown)
VH: QVQLVQSGAEVKKPGSSVKVSCKASGGTFSSEGISWVRQAPGQGLEWMGSILPIFGTANYAQKFQGRVTITADESTSTAYMELSSLRSEDTAVYYCAREAGYYRYRYFDLWGRGTLVTVSS
VL: EIVMTQSPATLSVSPGERATLSCRASQSVSSNLAWYQQKPGQAPRLLIYGASTRATGIPARFSGSGSGTEFTLTISSLQSEDFAVYYCQQHALWPLTFGGGTKVEIKR
